Assay [1] addresses HA-tagged RanBP2 (HA-RanBP2) (UniProt P49792). Briefly: proximity ligation.
Assay [2] has the same target. Description: co-IP.

The chains behind the UniProt entries cited, without tags or fusion partners.
UniProt P49792: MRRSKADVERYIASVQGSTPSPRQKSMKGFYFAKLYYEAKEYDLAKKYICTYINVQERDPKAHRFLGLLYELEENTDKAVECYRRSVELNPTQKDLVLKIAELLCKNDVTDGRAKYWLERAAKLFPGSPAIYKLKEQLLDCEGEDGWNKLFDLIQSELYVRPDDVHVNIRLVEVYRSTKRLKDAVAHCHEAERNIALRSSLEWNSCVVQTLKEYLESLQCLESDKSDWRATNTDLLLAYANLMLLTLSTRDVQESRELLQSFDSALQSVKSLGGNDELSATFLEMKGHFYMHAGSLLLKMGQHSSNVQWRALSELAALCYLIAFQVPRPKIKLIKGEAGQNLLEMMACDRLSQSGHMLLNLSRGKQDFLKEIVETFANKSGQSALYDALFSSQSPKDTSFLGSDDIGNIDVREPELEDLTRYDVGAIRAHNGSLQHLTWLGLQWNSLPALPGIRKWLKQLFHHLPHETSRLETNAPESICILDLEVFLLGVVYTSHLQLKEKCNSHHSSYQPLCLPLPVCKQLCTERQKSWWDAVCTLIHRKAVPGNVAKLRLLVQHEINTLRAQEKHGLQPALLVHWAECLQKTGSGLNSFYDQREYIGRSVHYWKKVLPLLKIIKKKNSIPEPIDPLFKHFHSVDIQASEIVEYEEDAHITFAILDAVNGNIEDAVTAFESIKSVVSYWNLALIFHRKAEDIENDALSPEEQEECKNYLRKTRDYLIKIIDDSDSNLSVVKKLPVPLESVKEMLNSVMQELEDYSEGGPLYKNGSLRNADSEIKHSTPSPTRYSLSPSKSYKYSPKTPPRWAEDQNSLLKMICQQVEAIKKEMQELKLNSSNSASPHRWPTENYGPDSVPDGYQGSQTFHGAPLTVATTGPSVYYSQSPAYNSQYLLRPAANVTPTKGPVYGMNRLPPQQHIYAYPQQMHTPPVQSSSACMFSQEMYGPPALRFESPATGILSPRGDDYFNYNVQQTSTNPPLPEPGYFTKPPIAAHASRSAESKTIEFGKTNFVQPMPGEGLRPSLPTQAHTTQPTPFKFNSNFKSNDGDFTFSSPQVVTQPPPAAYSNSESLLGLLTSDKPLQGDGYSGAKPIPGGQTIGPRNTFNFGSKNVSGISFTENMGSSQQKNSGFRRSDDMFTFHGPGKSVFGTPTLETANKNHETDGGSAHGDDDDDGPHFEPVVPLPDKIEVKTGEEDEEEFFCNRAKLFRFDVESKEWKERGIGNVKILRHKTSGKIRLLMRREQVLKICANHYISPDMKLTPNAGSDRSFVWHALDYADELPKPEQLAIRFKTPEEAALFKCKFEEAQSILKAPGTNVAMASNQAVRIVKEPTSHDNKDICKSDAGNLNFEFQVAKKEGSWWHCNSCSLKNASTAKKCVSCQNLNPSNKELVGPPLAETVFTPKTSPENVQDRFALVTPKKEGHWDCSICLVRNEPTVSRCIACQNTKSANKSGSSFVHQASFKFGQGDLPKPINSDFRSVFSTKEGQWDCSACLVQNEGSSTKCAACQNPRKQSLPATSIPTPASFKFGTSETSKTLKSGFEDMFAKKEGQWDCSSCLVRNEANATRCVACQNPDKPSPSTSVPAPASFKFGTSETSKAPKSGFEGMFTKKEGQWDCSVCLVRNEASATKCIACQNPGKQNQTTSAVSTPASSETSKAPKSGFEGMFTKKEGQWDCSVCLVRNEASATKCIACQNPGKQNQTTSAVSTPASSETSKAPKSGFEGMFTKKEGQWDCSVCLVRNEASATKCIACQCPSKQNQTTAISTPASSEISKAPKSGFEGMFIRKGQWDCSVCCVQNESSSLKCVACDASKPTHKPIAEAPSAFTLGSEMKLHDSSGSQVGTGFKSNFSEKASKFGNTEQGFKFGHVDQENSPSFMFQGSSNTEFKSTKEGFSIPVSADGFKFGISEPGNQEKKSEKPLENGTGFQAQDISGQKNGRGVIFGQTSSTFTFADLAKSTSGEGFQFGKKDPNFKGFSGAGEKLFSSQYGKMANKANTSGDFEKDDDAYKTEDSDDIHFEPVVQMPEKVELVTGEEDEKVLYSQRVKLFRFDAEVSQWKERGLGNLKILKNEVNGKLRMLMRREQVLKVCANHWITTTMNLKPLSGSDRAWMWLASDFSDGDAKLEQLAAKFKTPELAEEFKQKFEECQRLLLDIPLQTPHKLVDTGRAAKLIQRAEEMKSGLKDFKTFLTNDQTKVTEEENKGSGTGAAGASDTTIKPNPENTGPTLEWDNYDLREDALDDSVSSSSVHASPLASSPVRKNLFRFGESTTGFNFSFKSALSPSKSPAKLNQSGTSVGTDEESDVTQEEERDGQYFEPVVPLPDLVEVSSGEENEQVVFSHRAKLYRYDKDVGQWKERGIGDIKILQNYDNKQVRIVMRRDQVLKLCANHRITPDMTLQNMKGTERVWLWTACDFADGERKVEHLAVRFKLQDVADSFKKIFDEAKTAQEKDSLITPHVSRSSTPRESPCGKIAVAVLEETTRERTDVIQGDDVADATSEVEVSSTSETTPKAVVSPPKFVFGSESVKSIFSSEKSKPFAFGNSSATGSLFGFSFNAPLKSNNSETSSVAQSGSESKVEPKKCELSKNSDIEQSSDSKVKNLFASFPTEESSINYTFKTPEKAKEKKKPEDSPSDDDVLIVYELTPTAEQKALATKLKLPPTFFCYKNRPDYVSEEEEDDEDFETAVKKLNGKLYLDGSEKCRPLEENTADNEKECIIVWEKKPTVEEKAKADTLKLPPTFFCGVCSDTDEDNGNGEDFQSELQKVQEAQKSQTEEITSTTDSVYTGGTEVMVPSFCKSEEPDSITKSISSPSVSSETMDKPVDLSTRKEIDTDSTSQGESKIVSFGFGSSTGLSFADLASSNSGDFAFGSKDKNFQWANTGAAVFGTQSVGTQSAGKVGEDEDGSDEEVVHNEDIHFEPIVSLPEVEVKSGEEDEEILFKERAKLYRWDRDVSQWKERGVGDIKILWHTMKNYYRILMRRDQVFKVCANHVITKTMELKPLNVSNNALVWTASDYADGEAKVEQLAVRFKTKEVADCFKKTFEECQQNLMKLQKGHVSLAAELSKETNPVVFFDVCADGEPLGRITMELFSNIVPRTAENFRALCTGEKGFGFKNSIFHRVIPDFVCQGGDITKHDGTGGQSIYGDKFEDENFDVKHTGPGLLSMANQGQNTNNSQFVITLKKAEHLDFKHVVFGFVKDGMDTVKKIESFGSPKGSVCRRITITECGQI

Results are given in words; binding and its absence hold for the method and conditions named. Binding seen in cells or lysates may run through a third protein. Some results given as binding are weak or reduced against the parent protein; the word gives no strength. Where a sequence is shown, tags or fusion partners need not be part of it.

B1: Flag-tagged human DNA polymerase lambda (Flag-Polλ WT) (enzyme, UniProt Q9UGP5 1-575)
chain: MDPRGILKAFPKRQKIHADASSKVLAKIPRREEGEEAEEWLSSLRAHVVRTGIGRARAELFEKQIVQHGGQLCPAQGPGVTHIVVDEGMDYERALRLLRLPQLPPGAQLVKSAWLSLCLQERRLVDVAGFSIFIPSRYLDHPQPSKAEQDASIPPGTHEALLQTALSPPPPPTRPVSPPQKAKEAPNTQAQPISDDEASDGEETQVSAADLEALISGHYPTSLEGDCEPSPAPAVLDKWVCAQPSSQKATNHNLHITEKLEVLAKAYSVQGDKWRALGYAKAINALKSFHKPVTSYQEACSIPGIGKRMAEKIIEILESGHLRKLDHISESVPVLELFSNIWGAGTKTAQMWYQQGFRSLEDIRSQASLTTQQAIGLKHYSDFLERMPREEATEIEQTVQKAAQAFNSGLLCVACGSYRRGKATCGDVDVLITHPDGRSHRGIFSRLLDSLRQEGFLTDDLVSQEENGQQQKYLGVCRLPGPGRRHRRLDIIVVPYSEFACALLYFTGSAHFNRSMRALAKTKGMSLSEHALSTAVVRNTHGCKVGPGRVLPTPTEKDVFRLLGLPYREPAERDW
For the molecule B1, the binding result in assay [1] and in assay [2] was “binds” throughout.

These data come from paper doi:10.1101/2020.02.14.949644.
